This is an account of results in publication PMC9682543.

The assay addresses T1, serpinE2 (serine (or cysteine) peptidase inhibitor, clade E, member 2) (mouse (endogenous in neonatal mouse cardiac fibroblasts)) (UniProt Q07235).
T1 sequence: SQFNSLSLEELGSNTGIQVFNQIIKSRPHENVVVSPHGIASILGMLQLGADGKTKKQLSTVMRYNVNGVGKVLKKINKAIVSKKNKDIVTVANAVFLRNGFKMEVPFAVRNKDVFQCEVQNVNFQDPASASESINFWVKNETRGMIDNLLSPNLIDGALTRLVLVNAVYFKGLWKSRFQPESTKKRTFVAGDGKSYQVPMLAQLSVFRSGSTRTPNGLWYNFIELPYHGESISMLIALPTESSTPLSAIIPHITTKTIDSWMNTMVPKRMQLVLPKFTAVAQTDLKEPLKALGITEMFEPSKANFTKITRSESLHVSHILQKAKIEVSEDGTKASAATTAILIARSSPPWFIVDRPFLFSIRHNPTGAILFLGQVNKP
Nature of the assay: co-IP; cardiac fibroblasts lysed in IP lysis buffer; complex captured with anti-serpinE2 antibody and Protein A/G PLUS-Agarose, washed with PBS; uPAR and LRP1 detected by immunoblotting; IgG as negative control.

No constants are given. Whether binding was seen depends on the method and setting. Binding seen in cells or lysates may run through a third protein. A result given as binding can be weak or reduced; the word gives no strength.

As for “low-density lipoprotein receptor-related protein 1 (LRP1)”, the binding result is “binds”.
